From patent US20130345420A9, “SELECTIVE INHIBITORS OF EXCITATORY AMINO ACID TRANSPORTER SUBTYPE 1 (EAAT1/GLAST)” (priority 2008, published 2013)
For at least one compound, name, drawing or mass did not settle the structure.

Protein sequences, listed by entry. Tags and fused reporters are not part of them.
UniProt P43003, whole entry: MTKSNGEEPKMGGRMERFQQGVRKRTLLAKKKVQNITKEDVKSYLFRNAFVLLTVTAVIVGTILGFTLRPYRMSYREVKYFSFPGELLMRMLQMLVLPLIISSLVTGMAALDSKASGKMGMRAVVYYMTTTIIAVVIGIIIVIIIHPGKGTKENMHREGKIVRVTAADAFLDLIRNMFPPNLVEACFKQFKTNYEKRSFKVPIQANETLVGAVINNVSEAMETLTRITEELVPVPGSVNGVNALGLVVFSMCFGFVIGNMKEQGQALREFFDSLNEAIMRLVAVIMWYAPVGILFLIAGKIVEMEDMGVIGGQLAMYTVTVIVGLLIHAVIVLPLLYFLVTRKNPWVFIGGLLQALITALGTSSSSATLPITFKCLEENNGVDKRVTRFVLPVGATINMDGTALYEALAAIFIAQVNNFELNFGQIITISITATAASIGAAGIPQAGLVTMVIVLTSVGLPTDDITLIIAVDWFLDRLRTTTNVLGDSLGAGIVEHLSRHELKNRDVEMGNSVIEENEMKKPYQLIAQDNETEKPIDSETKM

Molecular target: T1, human EAAT1 (Homo sapiens, UniProt P43003)
T1 construct: expressed in transfected cells
Experiment: [3H]-D-Aspartic acid uptake assay, HEK293 cells stably expressing EAAT1
Format: cell-based
Settings: value in brackets, n=3-7
Procedure: Table 1: Inhibition of [^3H]-D-Asp uptake in HEK293 cells stably expressing human EAAT1, EAAT2 and EAAT3. The IC50 values are given in μM with pIC50±S.E.M. values in brackets (n=3-7).
The functional properties of the novel compounds of the invention were assessed in a [^3H]-D-Aspartic acid uptake assay using HEK293 cell lines stably expressing the human EAAT subtypes EAAT1, EAAT2 and EAAT3. Furthermore, some of the compounds were assayed at human EAAT1, EAAT2 and EAAT3 and the rat orthologs GLAST, GLT-1 and EAAC-1 in the FLIPR® Membrane Potential (FMP) Blue assay (Molecular Devices, Crawley, UK).
FIG. I depicts a graph showing the concentration-inhibition curves for 1o at the human EAAT subtype EAAT1 stably expressed in HEK293 cell lines in a [^3H]-D-aspartic acid uptake assay. The cells (grown in wells of 96-well plates) were washed twice with assay buffer, and incubated with buffer supplemented with 30 nM [^3H]-D-aspartic acid in the absence (control) or presence of increasing concentrations of 1o at […] for 7 min. The assay mixtures were then quickly removed from the wells, and the cells were washed with 3 times with ice-cold buffer, scintillation fluid was added to each well, and the plate was counted in a TopCounter.

Structure (SMILES): N#CC1=C(N)OC2=C(C(=O)CC(c3ccco3)C2)C1c1ccccc1 (stereo not shown) [1p]
- Inhibition of [3H]-D-Asp uptake, EAAT1, pIC50±S.E.M.: 5.13 ± 0.03
